Measurements from article PMC9331606 (2022).
Results are given in words; binding and its absence hold for the method and conditions named. Binding seen in cells or lysates may run through a third protein. Some entries that bind do so weakly or less than the wild type.

Chains of the proteins cited; added tags and fusions are not shown. Residues count along the entry.
UniProt P39748, residues 176-380: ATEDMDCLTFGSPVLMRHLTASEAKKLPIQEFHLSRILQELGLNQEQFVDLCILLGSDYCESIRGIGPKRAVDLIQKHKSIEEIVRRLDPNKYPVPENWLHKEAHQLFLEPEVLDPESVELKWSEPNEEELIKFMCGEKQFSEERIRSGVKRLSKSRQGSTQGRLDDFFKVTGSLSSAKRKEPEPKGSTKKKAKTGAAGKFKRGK
UniProt P29590: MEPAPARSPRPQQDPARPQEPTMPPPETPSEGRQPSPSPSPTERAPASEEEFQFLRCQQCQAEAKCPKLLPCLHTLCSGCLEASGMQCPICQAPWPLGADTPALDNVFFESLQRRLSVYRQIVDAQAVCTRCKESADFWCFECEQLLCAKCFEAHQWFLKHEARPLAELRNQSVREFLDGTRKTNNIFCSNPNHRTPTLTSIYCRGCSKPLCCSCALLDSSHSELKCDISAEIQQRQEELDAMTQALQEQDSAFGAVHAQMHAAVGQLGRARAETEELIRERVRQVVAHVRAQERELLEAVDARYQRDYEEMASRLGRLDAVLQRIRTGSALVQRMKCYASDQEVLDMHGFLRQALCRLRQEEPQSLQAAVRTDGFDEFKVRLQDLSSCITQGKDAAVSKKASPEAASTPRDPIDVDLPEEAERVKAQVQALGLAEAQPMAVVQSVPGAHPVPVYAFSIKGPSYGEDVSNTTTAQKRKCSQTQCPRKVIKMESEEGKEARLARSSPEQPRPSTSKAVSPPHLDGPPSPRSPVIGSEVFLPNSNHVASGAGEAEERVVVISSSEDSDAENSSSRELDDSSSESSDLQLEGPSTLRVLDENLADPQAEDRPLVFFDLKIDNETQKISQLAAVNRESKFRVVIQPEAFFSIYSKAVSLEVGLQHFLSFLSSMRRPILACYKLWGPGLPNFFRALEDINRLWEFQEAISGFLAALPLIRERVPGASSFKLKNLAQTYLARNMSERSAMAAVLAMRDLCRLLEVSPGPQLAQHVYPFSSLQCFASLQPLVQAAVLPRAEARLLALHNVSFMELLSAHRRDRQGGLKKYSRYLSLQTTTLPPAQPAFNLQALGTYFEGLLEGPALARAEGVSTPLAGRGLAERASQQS
UniProt P52630: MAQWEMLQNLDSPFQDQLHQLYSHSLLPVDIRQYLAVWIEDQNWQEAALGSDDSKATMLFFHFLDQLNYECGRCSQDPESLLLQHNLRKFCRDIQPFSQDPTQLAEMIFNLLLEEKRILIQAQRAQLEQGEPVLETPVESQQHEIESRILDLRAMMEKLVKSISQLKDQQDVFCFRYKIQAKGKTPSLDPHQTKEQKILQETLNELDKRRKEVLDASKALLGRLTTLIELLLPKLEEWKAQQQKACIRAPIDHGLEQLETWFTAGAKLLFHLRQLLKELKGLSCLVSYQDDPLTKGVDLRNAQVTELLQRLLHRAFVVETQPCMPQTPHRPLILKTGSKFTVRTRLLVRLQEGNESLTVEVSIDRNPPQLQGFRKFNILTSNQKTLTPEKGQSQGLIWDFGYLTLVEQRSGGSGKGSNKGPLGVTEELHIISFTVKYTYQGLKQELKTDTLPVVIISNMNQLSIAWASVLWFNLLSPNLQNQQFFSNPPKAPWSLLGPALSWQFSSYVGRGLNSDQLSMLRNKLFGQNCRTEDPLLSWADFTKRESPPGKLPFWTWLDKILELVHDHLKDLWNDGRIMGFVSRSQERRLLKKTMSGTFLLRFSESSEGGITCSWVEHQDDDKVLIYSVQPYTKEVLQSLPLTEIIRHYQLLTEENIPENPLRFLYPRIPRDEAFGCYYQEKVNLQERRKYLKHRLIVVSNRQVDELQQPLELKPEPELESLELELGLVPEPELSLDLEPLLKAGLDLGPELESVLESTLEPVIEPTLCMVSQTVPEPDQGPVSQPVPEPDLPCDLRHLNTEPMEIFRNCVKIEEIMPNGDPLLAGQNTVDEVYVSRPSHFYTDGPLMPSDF

Tests used:
[1] = target: Flag-tagged human cytomegalovirus IE1 (hIE1), doxycycline-induced in HFF (human cytomegalovirus (HCMV)) (UniProt P13202); experiment: co-IP
[2] = target: NanoLuciferase-tagged human flap endonuclease 1 aa 176-380 (human) (UniProt P39748); experiment: FRET or BRET; NanoBRET (Promega) in living HEK293T cells co-transfected with Halo-tagged and Luc-tagged proteins for 24 h; DNA ratio IE1 to human PML and FEN1 aa 176-380 1:10, to rat PML 1:100; 4 h with Halo ligand at 37 °C; read at 618 nm and 448 nm
[3] = target: NanoLuciferase-tagged human promyelocytic leukemia protein (hPML) (UniProt P29590); experiment: FRET or BRET
[4] = target: NanoLuciferase-tagged human promyelocytic leukemia protein (hPML) (UniProt P29590); experiment: FRET or BRET; NanoBRET (Promega) in living HEK293T cells co-transfected with Halo-tagged and Luc-tagged proteins for 24 h; DNA ratio IE1 to human PML and FEN1 aa 176-380 1:10, to rat PML 1:100; 4 h with Halo ligand at 37 °C; read at 618 nm and 448 nm

human signal transducer and activator of transcription 2 (hSTAT2), endogenous (from UniProt P52630 1-851)
binding [1]: binds

Halo-tagged human cytomegalovirus immediate early 1 protein (hIE1) (from UniProt P13202 1-491)
binding [2]: binds
binding [3]: binds

NanoLuciferase-tagged human promyelocytic leukemia protein (hPML) (from UniProt P29590 1-882)
binding [3]: binds

Halo-tagged hIE1 L174P (from UniProt P13202 1-491)
binding [4]: no binding
